# Experimental data published in PubChem BioAssay AID588590 (National Center for Advancing Translational Sciences (NCATS), 2011).
# The chains behind the UniProt entries cited, without tags or fusion partners. Where a name states a change or a piece, a line headed by the entry shows the natural chain unless it says otherwise.
# UniProt Q9UNA4: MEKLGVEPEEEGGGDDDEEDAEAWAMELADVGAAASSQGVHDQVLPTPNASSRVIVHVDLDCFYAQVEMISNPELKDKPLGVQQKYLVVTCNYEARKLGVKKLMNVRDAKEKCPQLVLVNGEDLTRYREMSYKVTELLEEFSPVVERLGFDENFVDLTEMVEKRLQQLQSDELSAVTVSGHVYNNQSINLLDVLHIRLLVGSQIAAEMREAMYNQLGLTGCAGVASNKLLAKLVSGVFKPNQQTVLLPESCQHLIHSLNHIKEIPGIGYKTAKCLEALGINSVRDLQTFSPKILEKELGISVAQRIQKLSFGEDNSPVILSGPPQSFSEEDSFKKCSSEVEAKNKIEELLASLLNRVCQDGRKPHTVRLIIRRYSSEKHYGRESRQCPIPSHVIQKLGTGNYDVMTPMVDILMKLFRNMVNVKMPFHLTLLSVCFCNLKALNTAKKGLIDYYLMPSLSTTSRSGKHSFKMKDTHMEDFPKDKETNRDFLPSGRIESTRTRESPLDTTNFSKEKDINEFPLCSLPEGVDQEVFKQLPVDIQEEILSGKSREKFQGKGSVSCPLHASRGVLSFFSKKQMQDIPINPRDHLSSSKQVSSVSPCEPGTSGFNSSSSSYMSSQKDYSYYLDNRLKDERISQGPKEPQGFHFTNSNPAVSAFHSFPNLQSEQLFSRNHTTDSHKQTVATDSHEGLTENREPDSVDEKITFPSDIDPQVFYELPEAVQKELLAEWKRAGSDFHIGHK
# Among all 390,000 compounds or so, about 4,000 (1%) were called active. The shares of active, inactive and inconclusive entries below differ from those in the screen. Calls come from the whole dose curve; as a rule, active = well fitted inhibition curve with a large enough effect; inconclusive = small, poorly fitted or top-dose-only effect, or another doubt; inactive = no such curve, though single readings can be large or run the other way. Where the call is inconclusive, the potency comes from a doubtful curve fit.
# Target: DNA polymerase iota (Homo sapiens) (UniProt Q9UNA4)
# Test: qHTS for Inhibitors of Polymerase Iota
# Settings: Pol iota fluorescent replication assay, 10 min; series mostly up to 115 µM; activity, negative = inhibition: at the top concentration
# In short: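 Fluorescent replication assay read twice, at 0 min and 10 min after adding 50 nM (final) substrate. Enzyme (10 nM) and compounds were first incubated 15 min at room temperature; enzyme-free buffer wells were negative controls.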
# Potency is the fitted concentration of half-maximal effect.
Structure (SMILES),Potency,"activity, negative = inhibition"
COc1ccc(-c2nc3ccccc3s2)cc1NC(=O)COc1cccc(C)c1,"inconclusive: 89.1 µM [inhibitor, single point]",
COCCCNC(=S)N1CCC(C(=O)c2ccc(Cl)cc2)CC1,"inconclusive: 89.1 µM [inhibitor, single point]",
O=c1c(N2CCCCC2)csc2ccc(F)cc12,,inactive: 23.8%
Cc1cc(C)cc(NC(=O)CCCn2c(=O)c3cccn3c3ccccc32)c1,,inactive: 34.1%
COc1ccc(Cc2c(N)nc(N)nc2N)cc1,"inconclusive: 89.1 µM [inhibitor, partial curve, poor fit]",
O=C(c1cnc(N2CCCCC2)c2ccccc12)N1CCN(c2cccc(Cl)c2)CC1,,inactive: 13.8%
CCC(OC(=O)CC1Sc2ccccc2NC1=O)C(=O)NCC1CCCO1 (stereo not drawn),"inconclusive: 2.51 µM [inhibitor, full curve, poor fit]",
CC(C)(C)n1nnnc1C(c1cccs1)N(Cc1ccccc1)Cc1ccco1 (stereo not drawn),"inconclusive: 0.891 µM [inhibitor, partial curve, poor fit]",
Cc1ccccc1-c1cc(C(=O)NCc2ccco2)n(CC2CC(c3cccnc3)=NO2)n1 (stereo not drawn),"inconclusive: 39.8 µM [inhibitor, single point]",
CCS(=O)(=O)N1Cc2ccccc2CC1C(=O)Nc1nc2ccccc2s1 (stereo not drawn),"inconclusive: 50.1 µM [inhibitor, partial curve, poor fit]",
CCCC(=O)N(Cc1cc(=O)[nH]c2ccccc12)c1ccc(OC)cc1,,inactive: 0.957%
CN1CCCC(OC(=O)c2ccc(S(=O)(=O)N(C)C)cc2)C1 (stereo not drawn),"inconclusive: 35.5 µM [inhibitor, single point]",
CCOC(=O)C1C(=O)NC(N2CCN(c3ccccc3)CC2)=NC1c1ccco1 (stereo not drawn),"inconclusive: 70.8 µM [inhibitor, partial curve, poor fit]",
COC(=O)c1ccccc1NC(=S)N1CCC(N2CCCCC2)CC1,"inconclusive: 89.1 µM [inhibitor, single point]",
O=C(NC(=S)Nc1sc2c(c1C(=O)O)CCCC2)c1ccccc1,"inconclusive: 44.7 µM [inhibitor, single point]",
O=C(CN1CCN(Cc2ccccc2)CC1)Nc1ccc(Br)cc1,"inconclusive: 10 µM [inhibitor, single point]",
CC(C)(O)[C@H](O)Cc1cc2ccc(=O)oc2cc1O[C@@H]1O[C@H](CO)[C@@H](O)[C@H](O)[C@H]1O,"inconclusive: 7.08 µM [inhibitor, partial curve, poor fit]",
CCNC(=O)C1CCN(Cc2cc3ccccc3n2Cc2ccc(C)cc2)CC1,"inconclusive: 35.5 µM [inhibitor, partial curve, poor fit]",
O=C(Nc1ccccc1Sc1ccccc1)c1cnn2c1NC(=C1CC1)C=C2C(F)(F)F,,inactive: -17.1%
CC(C)(C)OC(=O)[C@H](Cc1ccccc1)NC(=O)c1nc[nH]c1C(=O)NCc1ccccc1,"inconclusive: 89.1 µM [inhibitor, single point]",
O=C(OCc1nnc(-c2ccccc2)o1)c1ccc(-n2cnnn2)cc1,"inconclusive: 89.1 µM [inhibitor, single point]",

# Not a retest: 2 of the compounds above.
Structure (SMILES),Potency,"activity, negative = inhibition"
CN1CCCC(OC(=O)c2ccc(S(=O)(=O)N(C)C)cc2)C1 (stereo not drawn),"inconclusive: 35.5 µM [inhibitor, single point]",
CCOC(=O)C1C(=O)NC(N2CCN(c3ccccc3)CC2)=NC1c1ccco1 (stereo not drawn),"inconclusive: 70.8 µM [inhibitor, partial curve, poor fit]",

# Later entries

Structure (SMILES),Potency,"activity, negative = inhibition"
CC(=O)c1c(C)[nH]c(C(=O)OCC(=O)c2ccc(C)s2)c1C,"inconclusive: 22.4 µM [inhibitor, partial curve, poor fit]",
COC(=O)c1ccc(CSc2nnc(NC(=O)C3CC(=O)N(c4ccc5c(c4)OCCO5)C3)s2)cc1 (stereo not drawn),"inconclusive: 20 µM [inhibitor, partial curve, poor fit]",
CCCOc1ccc(C2C(C(=O)c3ccc(C)o3)=C(O)C(=O)N2Cc2ccco2)cc1OCC (stereo not drawn),,inactive: -8.52%
CCn1c(=O)c2sccc2n2c(CCC(=O)NCc3ccc(Cl)cc3)nnc12,,inactive: -2.58%
O=S(=O)(NCCS(=O)(=O)N1CCN(c2ccccc2)CC1)c1ccc(Cl)cc1,"inconclusive: 89.1 µM [inhibitor, partial curve, poor fit]",
N#CC1(NC(=O)COC(=O)c2cc(O)c3ccccc3c2O)CCCCC1,"inconclusive: 15.8 µM [inhibitor, partial curve, poor fit]",
CC(C(=O)Nc1ccc(S(=O)(=O)N2CCCC2)cc1)N1CCN(c2ccccc2O)CC1 (stereo not drawn),"inconclusive: 50.1 µM [inhibitor, single point]",
COc1ccc(C(=O)Nc2ccccc2-c2nc(-c3ccc(OC)cc3)no2)cc1,,inactive: 32.2%
O=C(c1cnc(N2CCCCC2)c2ccccc12)N1CCN(c2ccc(Cl)cc2)CC1,,inactive: 30.3%
CSc1nc2ncnc(N)c2[nH]1,"inconclusive: 28.2 µM [inhibitor, single point]",
O=C(Nc1ccc(Cl)cc1)c1cc2nc(-c3ccc4c(c3)OCO4)cc(C(F)(F)F)n2n1,,inactive: 21.9%
CCOC(=O)c1ccc2c(c1)[C@@H]1C=CC[C@@H]1[C@H](c1cccc(OC)c1OC)N2,"inconclusive: 2.24 µM [inhibitor, full curve, poor fit]",
Cc1ccc(C)c(N(CC(=O)NCc2ccco2)C(=O)CNS(=O)(=O)c2ccccc2)c1,"inconclusive: 100 µM [inhibitor, partial curve, poor fit]",
COc1ccc(C2CC(=O)Oc3cc(C)c(Cl)c(C)c32)cc1 (stereo not drawn),,inactive: -3.48%
CCCCn1c(N)c(N(CCOC)C(=O)CN2C(=O)NC3(CC(C)CC(C)(C)C3)C2=O)c(=O)[nH]c1=O (stereo not drawn),"inconclusive: 28.2 µM [inhibitor, partial curve, poor fit]",
COc1ccccc1CNC(=O)c1ccoc1C,"inconclusive: 89.1 µM [inhibitor, single point]",
C#CCOCCOCCOCCNc1nc(N2CCN(C(=O)[C@H]([C@@H](C)CC)n3cc([C@@H](N)CC(C)C)nn3)CC2)nc(N2CCN(C(=O)[C@H](CCCCN)n3cc([C@@H](N)C(C)CC)nn3)CC2)n1 (stereo partly drawn),"inconclusive: 15.8 µM [inhibitor, full curve]",
O=c1cc(-c2ccccc2)[nH]n1-c1ccc([N+](=O)[O-])cc1,"inconclusive: 1.26 µM [inhibitor, full curve, poor fit]",
O=C(Nc1cc(Cl)ccc1-n1cncn1)c1ccc([N+](=O)[O-])o1,"inconclusive: 39.8 µM [inhibitor, partial curve]",
COC(=O)c1sc2cccc(F)c2c1S(=O)(=O)NCc1ccc(Cl)cc1,,inactive: 20.3%
Cc1ccc(CNC(=O)c2ccc(N3CCC4(CC3)CC(c3ccccc3)=NO4)c([N+](=O)[O-])c2)cc1,"inconclusive: 22.4 µM [inhibitor, full curve, poor fit]",

Structure (SMILES),Potency,"activity, negative = inhibition"
Fc1ccc(-c2cc(C(F)(F)F)nc(NCc3ccccc3)n2)cc1,,inactive: -13.2%
CCCCS(=O)(=O)c1oc(-c2ccc(F)cc2)nc1S(=O)(=O)c1ccccc1,"inconclusive: 20 µM [inhibitor, partial curve]",
O=C(O)c1ccc(OC2CSC2)cc1,"inconclusive: 20 µM [inhibitor, full curve, poor fit]",
COCCNC(C)C(=O)C12CC3CC(CC(C3)C1)C2 (stereo not drawn),"inconclusive: 89.1 µM [inhibitor, single point]",
CCOC(=O)C1CCCN(S(=O)(=O)c2cc3c(cc2C)NC(=O)CO3)C1 (stereo not drawn),,inactive: 1.84%
Cc1c(C(=O)O)cccc1-n1c(C)cc(/C=N/NC(=O)c2cc3ccccc3o2)c1C,"inconclusive: 22.4 µM [inhibitor, full curve, poor fit]",
Cn1c(O)c(C2=c3ccccc3=NC2=O)[nH]c1=S,,inactive: 3.97%
CCSc1nnc2c(n1)OC(c1sccc1C)N(C(C)=O)c1ccccc1-2 (stereo not drawn),,inactive: 0.106%
O=C(N/N=C1\C/C(=N\NC(=O)c2ccncc2)c2ccccc21)c1ccncc1,"inconclusive: 10 µM [inhibitor, partial curve, poor fit]",
C/C(=N\NC(=O)C(O)c1ccccc1)c1ccc(Br)s1 (stereo not drawn),"inconclusive: 70.8 µM [inhibitor, single point]",
Nc1ccc(-c2nc3nc(N)nc(N)c3nc2-c2ccc(N)cc2)cc1,,inactive: 30.8%
c1ccc(-c2nnc(CN3CCN(C(c4ccccc4)c4ccccc4)CC3)o2)cc1,"inconclusive: 12.6 µM [inhibitor, full curve, poor fit]",
COc1ccc(N(CC(=O)NCc2ccco2)S(C)(=O)=O)cc1,,inactive: -8.54%
CC(=O)c1c(C)[nH]c(C(=O)OCC(=O)Nc2ccc3[nH]c(=O)[nH]c3c2)c1C,"inconclusive: 25.1 µM [inhibitor, full curve]",
COc1cc(Cl)c(NC2=CC(=O)C(=O)c3ccccc32)c(OC)c1,"inconclusive: 31.6 µM [inhibitor, single point]",
O=c1cc(CSc2nc3ccccc3c(=O)[nH]2)c2ccc(O)cc2o1,"inconclusive: 50.1 µM [inhibitor, partial curve]",
Cc1onc(-c2c(Cl)cccc2Cl)c1C(=O)N=C(N)N1CC(C)OC(C)C1 (stereo not drawn),"inconclusive: 100 µM [inhibitor, single point]",
CC1(C(=O)NCC2CC2)C=CC2(CCCCC2)N1C(=O)c1ccccc1 (stereo not drawn),"inconclusive: 11.2 µM [inhibitor, partial curve, poor fit]",
O=C(CSc1nc(-c2ccccc2)nc2c1Cc1ccccc1O2)Nc1ccc(C(=O)O)cc1,"inconclusive: 12.6 µM [inhibitor, single point]",
O=C(N/N=C/c1cc(Cl)cc([N+](=O)[O-])c1O)c1ccccc1NS(=O)(=O)c1cccs1,"inconclusive: 50.1 µM [inhibitor, single point]",
Nc1nc(N)c2sc3nc4c(cc3c2n1)CCC4,"inconclusive: 39.8 µM [inhibitor, single point]",
